Data from PubChem BioAssay AID504834 (National Center for Advancing Translational Sciences (NCATS), 2011).
Out of some 320,000 compounds screened, about 22,000 (6.9%) were called active. The inconclusive results got no clear call from the source; some entries with a clear call stand among them for comparison. Calls come from the whole dose curve; as a rule, active = well fitted inhibition curve with a large enough effect; inconclusive = small, poorly fitted or top-dose-only effect, or another doubt; inactive = no such curve, though single readings can be large or run the other way. A potency beside an inconclusive call is a rough fit, not a confirmed value.

Assay: Primary qHTS for delayed death inhibitors of the malarial parasite plastid, 96 hour incubation
Conditions: P. falciparum luciferase reporter growth; series mostly up to 28.7 µM; activity change, negative = inhibition: at the top concentration
Procedure, shortened: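 Two parasite generations (96 h, 37 C, 5% CO2) of compound exposure in infected erythrocytes (0.05% parasitemia, 2% hematocrit). Luciferase-reporter P. falciparum; decreased luminescence indicates inhibited growth, aimed at apicoplast-acting delayed death.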
% is set by controls: 0 for no effect and ±100 for the full control effect; potency is the fitted concentration of half-maximal effect.

Row | SMILES | Potency | activity change, negative = inhibition
1 | CC(=O)c1cccc(NC(=O)CCNS(=O)(=O)c2cccc3nonc23)c1 | inconclusive: 0.104 µM [inhibitor, full curve, poor fit] | 
2 | OCC1(Cc2ccccc2)CCN(C2CCN(c3ccccc3F)CC2)CC1 |  | inactive: 1.04%
3 | CCCn1c(CN2CCN(C)CC2)nc2ccccc21 |  | inactive: -27%
4 | Clc1cccc(Cl)c1CSc1nnc(-c2sccc2-n2cccc2)o1 | inconclusive: 18.5 µM [inhibitor, single point] | 
5 | Cc1csc(SCC(=O)Nc2cccc3nsnc23)n1 | inconclusive: 14.7 µM [inhibitor, single point] | 
6 | C/C(=N\NC(=O)c1ccn(C)n1)c1ccc(NC(=O)C2CCCC2)cc1 |  | inactive: 11.7%
7 | CCNc1ccc(Br)cc(C(=O)/C=C/c2ccc(Cl)cc2)c1=O | inconclusive: 18.5 µM [inhibitor, single point] | 
8 | COCCCNc1nc2c(c(=O)n(Cc3ccc(F)cc3)c(=O)n2C)n1C | inconclusive: 18.5 µM [inhibitor, single point] | 
9 | COC(=O)c1[nH]c2cc(OC)ccc2c1NC(=O)CN1CCN(c2cccc(C)c2)C(C)C1 (stereo not given) | active: 10.4 µM | 
10 | Cn1ncc(Cl)c1C(=O)NCc1ccco1 | inconclusive: 2.62 µM [inhibitor, full curve, poor fit] | 
11 | C/C(=N\NC(=O)CCCNc1ccccc1)c1ccncc1 | inconclusive: 18.5 µM [inhibitor, single point] | 
12 | O=C(CSc1nc(C2CC2)nc2ccccc12)N1c2ccccc2Sc2ccccc21 | inconclusive: 2.62 µM [inhibitor, single point] | 
13 | CC(C)CCNC(=O)NC(=O)CSc1nnc2ccccn12 | inconclusive: 9.28 µM [inhibitor, single point] | 
14 | CCOc1ccc(OCC)c(NC(=O)CN2CCN(c3cc(C)ccc3C)CC2)c1 | inconclusive: 10.4 µM [inhibitor, single point] | 
15 | Cn1c2c(c(=O)[nH]c1=O)C(NC(=O)c1ccco1)(C(F)(F)F)C(=O)N2 (stereo not given) |  | inactive: -1.45%
16 | CCOC(=O)c1c(NC(=O)CSc2nnc(-c3ccccc3)n2CC)sc(C(C)=O)c1C | inconclusive: 0.0657 µM [inhibitor, full curve, poor fit] | 
17 | O=c1cc(-c2ccccc2)[nH]c2cc(Cl)ccc12 | active: 8.28 µM | 
18 | Cc1ccccc1COc1ccc(/C=N/NC(=O)c2nnn(-c3nonc3N)c2CN2CCC(C)CC2)cc1 | inconclusive: 18.5 µM [inhibitor, single point] | 
19 | Cc1cccc(CS(=O)(=O)c2nnc([C@H](Cc3ccccc3)NC(=O)OC(C)(C)C)o2)c1 |  | inactive: -22.9%
20 | CCN(CC)C(=O)Cn1cc(S(=O)(=O)CC(=O)Nc2ccc(OC)c(OC)c2)c2ccccc21 | inconclusive: 1.65 µM [inhibitor, full curve, poor fit] | 
21 | COc1ccccc1NS(=O)(=O)c1ccc(C(=O)NCCCN2CCOCC2)cc1 | inconclusive: 8.28 µM [inhibitor, partial curve, poor fit] | 
22 | O=C(CN1CCN(c2ccccc2O)CC1)Nc1ccc([N+](=O)[O-])cc1Br | inconclusive: 18.5 µM [inhibitor, single point] | 
23 | COCC(=O)N1CCCC(C(=O)c2ccc(-c3ccccc3)c(F)c2)C1 (stereo not given) | inconclusive: 2.33 µM [inhibitor, partial curve, poor fit] | 

Row | SMILES | Potency | activity change, negative = inhibition
24 | O=C(NNC(=O)c1cc2ccccc2cc1O)Nc1ccccc1F |  | inactive: 30.4%
25 | Brc1ccc2oc(-c3ccn[nH]3)cc2c1 |  | inactive: 108%
26 | Cc1ccc(-n2c(C)cc(/C=N/NC(=O)CC3(C)OCCO3)c2C)cc1 | inconclusive: 18.5 µM [inhibitor, single point] | 
27 | O=C(Cn1cc(F)c(=O)[nH]c1=O)NCCO |  | inactive: 0%
28 | COc1ccc(OC)c(NC(=O)CCCC(=O)NC2CCCCC2)c1 | inconclusive: 20.8 µM [inhibitor, single point] | 
29 | CCOC(=O)c1ccc(N2CCOCC2)c(NS(=O)(=O)c2ccc(F)cc2)c1 | inconclusive: 2.94 µM [inhibitor, full curve] | 
30 | CCOC(=O)c1ccc(NC(=O)CN2C(=O)NC3(CCCCCCC3)C2=O)cc1 | inconclusive: 14.7 µM [inhibitor, single point] | 
31 | O=C(Nc1ccc2oc(-c3cccnc3)nc2c1)c1ccc([N+](=O)[O-])o1 | inconclusive: 2.62 µM [inhibitor, single point] | 
32 | COc1ccc(-n2ccn(CC(=O)Nc3ccccc3OC)c(=O)c2=O)cc1 |  | inactive: 53.6%
33 | O=C(c1ccc(CS(=O)c2cccc(Cl)c2)o1)N1CCOCC1 (stereo not given) | inconclusive: 10.4 µM [inhibitor, single point] | 
34 | COc1ccc(S(=O)(=O)N(C)CC(=O)Nc2ccccc2OC)cc1C | inconclusive: 1.17 µM [inhibitor, single point] | 
35 | COC(=O)C1CCN(c2nc3ccccc3nc2C(C#N)C(=O)NCCc2ccccc2)CC1 (stereo not given) | active: 14.7 µM | 
36 | CCOC(=O)c1c(-c2cccc([N+](=O)[O-])c2)csc1NC(=O)C1CCCCC1 | inconclusive: 0.0029 µM [inhibitor, full curve, poor fit] | 
37 | COc1ccc(NC(=O)NNS(=O)(=O)c2cc(C)ccc2C)cc1OC | inconclusive: 10.4 µM [inhibitor, single point] | 
38 | Cc1ccc(C(=O)OCN2C(=O)c3ccccc3C2=O)o1 |  | inactive: 76.6%
39 | Cc1cccc(OCC(=O)N/N=C/CC(C)c2ccccc2)c1C (stereo not given) |  | inactive: -3.73%
40 | Cc1cccc(-n2c(SC(C)C(=O)O)nc3sc4c(c3c2=O)CCCC4)c1 (stereo not given) |  | inactive: 36.7%
41 | CC(=O)c1ccc(NC(=O)C(C)Sc2nnc3ccccn23)cc1 (stereo not given) | active: 9.28 µM | 
42 | COc1ccc(NS(=O)(=O)c2cccc(C(=O)NCc3ccccc3CN3CCCC3)c2)cc1 | active: 13.1 µM | 
43 | O=C(CSc1ncn[nH]1)Nc1ccccc1-c1ccccc1 | inconclusive: 4.15 µM [inhibitor, single point] | 
44 | COc1ccc2c(c1)c1ncn(Cc3ccc(F)cc3)c(=O)c1n2C | inconclusive: 18.5 µM [inhibitor, single point] | 
45 | CCn1c(NCc2ccco2)nc2ccccc21 | inconclusive: 2.94 µM [inhibitor, full curve, poor fit] | 

Record cards (already shown).
`CCNc1ccc(Br)cc(C(=O)/C=C/c2ccc(Cl)cc2)c1=O` in the list: Potency: inconclusive: 18.5 µM [inhibitor, single point]
`COc1ccccc1NS(=O)(=O)c1ccc(C(=O)NCCCN2CCOCC2)cc1` in the list: Potency: inconclusive: 8.28 µM [inhibitor, partial curve, poor fit]
`Cc1ccccc1COc1ccc(/C=N/NC(=O)c2nnn(-c3nonc3N)c2CN2CCC(C)CC2)cc1` in the list: Potency: inconclusive: 18.5 µM [inhibitor, single point]
